In patent publication US12630618 (GEORGIA TECH RESEARCH, dated 2026):
These are yes or no findings as the source states them, for the method shown. Some results given as binding are weak or reduced against the parent protein; the word gives no strength. For part of these data: Tags and fused reporters may be left off the sequences shown.

Assays:
[1] = molecular target: T1, human myocilin OLF (hMyoc-OLF), cleaved from its fusion tag (human) (UniProt Q99972); test: Western blot, denatured hMyoc-OLF
T1 sequence: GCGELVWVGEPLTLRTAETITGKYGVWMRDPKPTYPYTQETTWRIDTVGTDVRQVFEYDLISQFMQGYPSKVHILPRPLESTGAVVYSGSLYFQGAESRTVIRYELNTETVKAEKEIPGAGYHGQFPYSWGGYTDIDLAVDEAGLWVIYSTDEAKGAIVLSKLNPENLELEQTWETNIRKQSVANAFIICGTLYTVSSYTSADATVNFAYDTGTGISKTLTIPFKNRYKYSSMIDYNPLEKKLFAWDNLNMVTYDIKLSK

[2] = molecular target: T2, in vitro-prepared aggregate of human myocilin OLF (human) (UniProt Q99972); test: told in the amyloid aggregation example; the assay behind it is not named there
T2 sequence: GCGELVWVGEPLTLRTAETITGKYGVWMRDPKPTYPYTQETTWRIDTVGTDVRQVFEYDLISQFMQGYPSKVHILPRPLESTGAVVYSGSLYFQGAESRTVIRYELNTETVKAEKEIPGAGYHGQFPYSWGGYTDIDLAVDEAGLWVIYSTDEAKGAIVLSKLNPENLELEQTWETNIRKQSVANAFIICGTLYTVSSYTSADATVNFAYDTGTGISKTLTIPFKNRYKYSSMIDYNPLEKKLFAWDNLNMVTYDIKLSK

[3] = molecular target: T2, in vitro-prepared aggregate of human myocilin OLF (human); test: ELISA, aggregate vs fusion-construct monomer
[4] = molecular target: T3, myocilin (OLF) from spent human TM cell culture medium (human) (UniProt Q99972); test: immunoprecipitation from TM cell culture, Western blot read-out
T3 sequence: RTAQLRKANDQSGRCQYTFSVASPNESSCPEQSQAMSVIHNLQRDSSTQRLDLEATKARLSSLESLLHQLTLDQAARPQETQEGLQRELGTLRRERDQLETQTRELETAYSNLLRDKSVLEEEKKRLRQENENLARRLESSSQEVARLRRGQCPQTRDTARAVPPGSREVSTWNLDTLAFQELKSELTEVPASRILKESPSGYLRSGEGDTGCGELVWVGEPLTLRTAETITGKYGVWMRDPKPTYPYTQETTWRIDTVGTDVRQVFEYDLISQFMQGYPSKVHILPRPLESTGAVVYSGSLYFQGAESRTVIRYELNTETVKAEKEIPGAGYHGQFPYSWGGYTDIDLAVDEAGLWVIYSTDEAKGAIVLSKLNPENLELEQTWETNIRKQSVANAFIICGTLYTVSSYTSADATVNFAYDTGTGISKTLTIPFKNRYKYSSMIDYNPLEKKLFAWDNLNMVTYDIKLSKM

[5] = molecular target: T3, myocilin (OLF) from spent human TM cell culture medium (human); test: immunoprecipitation from spent human TM medium, IgG, Western blot read-out

Measured: binding

B1: Monoclonal Antibody OLF4 (antibody, V domains shown)
VH: EVMLVESGGGLVKPGGSLKLSCAASGFTFRSYAMSWVRQTPEKRLEWVASISGRGNILYPDSVEGRFTISRDNARNILYLQMSSLRSEDTAMYYCVIYDSGAMDYWGQGTSVTVSS
VL: DIVMTQTPLSLPVSLGDQASISCRSSQSLVHSNGNTYLHWYLQKPGQSPKLLIYKVSNRFSGVPDRFSGSGSGTDFLKISRVEAEDLGLYFCSQTTHVPLTFGAGTKLELKR
binds: [1] | [2] | [3]

B2: Monoclonal Antibody OLF2 (antibody, V domains shown)
VH: DVKLVESGGGLVKPGGSLKLSCAASGFTFSSYAMSWVRQTPDKRLEWVATISSGGSYTYYPDSVKGRFTISRDNAKNTLYLQMSSLKSEDTAMYYCARLGGGIFAYWGQGTLVTVSA
VL: DVLMTQTPLSLPVSLGDQASISCRSSQSIVHSNGNTYLEWYLQKPGQSPKLLIYKVSNRFSGVPDRFSGSGSGTDFTLKISRVEAEDLGVYYCFQGSHVPLTFGAGTKLEIKR
notes: also called anti-OLF2
binds: [4] | [5] | [3]
